Results are given in words; binding and its absence hold for the method and conditions named. Binding seen in cells or lysates may run through a third protein. Here binding means that the protein was enriched with, or labelled near, the bait; the list need not be complete.
Molecular target: GFP-hMyoX (GFP-tagged headless MyoX), expressed in cultured cortical neurons (mouse) (UniProt F8VQB6)
Assay: affinity purification with mass spectrometry; GFP-hMyoX transfected into cultured cortical neurons, lysed after 48 h (20 mM Tris pH 8.0, 10 mM NaCl, 1 mM EDTA, 0.5% NP-40); precipitated with anti-GFP or control IgG; unique silver-stained bands (~50-250 kDa) analysed by LC-MS/MS

Chains of the proteins cited; added tags and fusions are not shown. Residues count along the entry.
UniProt F8VQB6, residues 860-2062: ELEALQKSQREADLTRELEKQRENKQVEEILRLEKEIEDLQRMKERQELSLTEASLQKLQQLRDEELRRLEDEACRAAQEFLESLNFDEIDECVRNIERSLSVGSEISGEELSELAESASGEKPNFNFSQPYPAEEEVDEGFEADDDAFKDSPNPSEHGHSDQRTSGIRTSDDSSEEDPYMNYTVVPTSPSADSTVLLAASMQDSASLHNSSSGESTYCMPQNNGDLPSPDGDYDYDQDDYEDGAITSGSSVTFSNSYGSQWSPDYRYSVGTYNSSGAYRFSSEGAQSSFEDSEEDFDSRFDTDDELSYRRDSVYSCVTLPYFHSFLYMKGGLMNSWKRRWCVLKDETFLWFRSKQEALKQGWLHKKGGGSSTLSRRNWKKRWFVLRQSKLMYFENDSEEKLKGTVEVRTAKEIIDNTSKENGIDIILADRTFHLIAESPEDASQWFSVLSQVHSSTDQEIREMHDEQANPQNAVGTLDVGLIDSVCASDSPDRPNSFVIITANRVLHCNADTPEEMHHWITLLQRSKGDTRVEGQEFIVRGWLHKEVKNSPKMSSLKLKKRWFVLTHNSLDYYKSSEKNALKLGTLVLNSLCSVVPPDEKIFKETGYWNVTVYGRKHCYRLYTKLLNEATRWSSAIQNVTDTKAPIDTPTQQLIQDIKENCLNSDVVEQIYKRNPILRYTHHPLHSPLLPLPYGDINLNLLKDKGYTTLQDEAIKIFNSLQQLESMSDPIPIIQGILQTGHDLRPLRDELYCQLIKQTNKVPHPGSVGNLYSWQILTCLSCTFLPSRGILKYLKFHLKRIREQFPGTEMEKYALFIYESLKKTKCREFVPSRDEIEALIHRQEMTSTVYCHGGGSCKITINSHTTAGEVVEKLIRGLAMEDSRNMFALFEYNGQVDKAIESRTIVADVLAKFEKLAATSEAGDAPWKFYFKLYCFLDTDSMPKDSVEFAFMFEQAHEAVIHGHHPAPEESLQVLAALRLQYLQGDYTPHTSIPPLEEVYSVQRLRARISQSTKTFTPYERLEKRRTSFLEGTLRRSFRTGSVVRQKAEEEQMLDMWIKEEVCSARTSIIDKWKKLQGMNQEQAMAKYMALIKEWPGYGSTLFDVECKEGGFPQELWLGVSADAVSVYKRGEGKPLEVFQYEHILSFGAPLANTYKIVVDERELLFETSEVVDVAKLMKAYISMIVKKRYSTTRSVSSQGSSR
UniProt E9Q4K7: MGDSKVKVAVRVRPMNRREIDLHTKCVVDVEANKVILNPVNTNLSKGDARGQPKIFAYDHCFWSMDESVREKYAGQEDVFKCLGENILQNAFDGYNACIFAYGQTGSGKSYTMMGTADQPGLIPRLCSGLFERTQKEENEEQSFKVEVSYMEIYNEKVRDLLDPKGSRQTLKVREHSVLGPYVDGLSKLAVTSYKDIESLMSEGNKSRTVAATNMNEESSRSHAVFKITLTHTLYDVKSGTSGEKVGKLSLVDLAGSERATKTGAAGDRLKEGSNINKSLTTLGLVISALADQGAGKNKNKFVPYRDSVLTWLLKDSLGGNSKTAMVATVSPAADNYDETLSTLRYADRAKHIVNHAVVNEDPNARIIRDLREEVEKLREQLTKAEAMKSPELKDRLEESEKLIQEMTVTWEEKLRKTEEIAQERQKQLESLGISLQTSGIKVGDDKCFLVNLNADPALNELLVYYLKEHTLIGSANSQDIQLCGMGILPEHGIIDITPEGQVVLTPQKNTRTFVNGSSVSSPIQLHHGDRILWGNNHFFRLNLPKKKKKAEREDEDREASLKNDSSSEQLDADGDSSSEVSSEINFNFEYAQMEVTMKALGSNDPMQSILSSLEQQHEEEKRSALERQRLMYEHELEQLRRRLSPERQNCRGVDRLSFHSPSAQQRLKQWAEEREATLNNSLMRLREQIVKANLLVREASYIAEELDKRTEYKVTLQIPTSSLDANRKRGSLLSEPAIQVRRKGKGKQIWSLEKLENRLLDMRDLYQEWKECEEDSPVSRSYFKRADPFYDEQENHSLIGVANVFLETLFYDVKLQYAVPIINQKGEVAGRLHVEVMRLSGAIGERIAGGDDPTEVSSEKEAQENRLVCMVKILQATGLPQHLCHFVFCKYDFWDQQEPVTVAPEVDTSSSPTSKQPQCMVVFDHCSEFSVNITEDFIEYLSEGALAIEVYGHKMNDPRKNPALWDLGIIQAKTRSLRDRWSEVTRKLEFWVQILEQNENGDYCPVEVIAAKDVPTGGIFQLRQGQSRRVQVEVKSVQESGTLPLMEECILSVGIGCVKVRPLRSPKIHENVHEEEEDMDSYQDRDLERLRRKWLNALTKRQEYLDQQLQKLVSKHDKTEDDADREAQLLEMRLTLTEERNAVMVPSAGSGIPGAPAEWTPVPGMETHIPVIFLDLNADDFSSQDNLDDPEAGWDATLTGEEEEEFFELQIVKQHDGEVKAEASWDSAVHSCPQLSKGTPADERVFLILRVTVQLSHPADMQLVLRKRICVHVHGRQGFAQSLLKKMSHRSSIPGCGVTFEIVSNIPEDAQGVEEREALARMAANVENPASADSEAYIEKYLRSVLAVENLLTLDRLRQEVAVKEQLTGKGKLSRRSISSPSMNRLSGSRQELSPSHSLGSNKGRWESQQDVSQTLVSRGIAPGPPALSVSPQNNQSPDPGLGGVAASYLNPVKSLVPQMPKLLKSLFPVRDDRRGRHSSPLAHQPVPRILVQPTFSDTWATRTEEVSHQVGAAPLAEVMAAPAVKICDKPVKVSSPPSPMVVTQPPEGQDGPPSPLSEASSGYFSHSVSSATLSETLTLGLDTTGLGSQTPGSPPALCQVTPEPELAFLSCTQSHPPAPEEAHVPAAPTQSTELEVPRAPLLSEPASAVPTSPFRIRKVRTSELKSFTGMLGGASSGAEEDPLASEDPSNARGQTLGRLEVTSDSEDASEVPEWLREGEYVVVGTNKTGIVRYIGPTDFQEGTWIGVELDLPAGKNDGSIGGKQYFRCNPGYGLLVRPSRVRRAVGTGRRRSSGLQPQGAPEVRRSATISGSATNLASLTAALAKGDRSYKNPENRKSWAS

binding: binds
Substance: KIF13B, endogenous in cultured cortical neurons (from UniProt E9Q4K7 1-1843)

Source: PMC7687062
